Whole data set: some 33,000 sequences, median “E-score (-0.5 to 0.5)” near -0.0034, cut for the highest 2% near 0.25. The list shows a part of the results.
target: T1, Yap3 (UniProt P38749); test: PBM E-score (8-mer binding enrichment) (E-score (-0.5 to 0.5)); higher = stronger / more preferred TF binding; details: protein concentration: 100 nM; construct: GST-full length
T1 sequence: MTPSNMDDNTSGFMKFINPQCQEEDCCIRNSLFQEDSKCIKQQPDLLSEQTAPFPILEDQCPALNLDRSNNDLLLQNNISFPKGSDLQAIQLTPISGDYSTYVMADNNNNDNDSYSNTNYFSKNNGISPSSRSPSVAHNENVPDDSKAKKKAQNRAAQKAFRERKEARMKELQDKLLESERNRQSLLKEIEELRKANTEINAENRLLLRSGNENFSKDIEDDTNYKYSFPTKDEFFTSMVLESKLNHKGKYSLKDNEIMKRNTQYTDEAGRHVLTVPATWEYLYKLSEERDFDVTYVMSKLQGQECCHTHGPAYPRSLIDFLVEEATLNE
Protocol: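 Universal 'all 10-mer' protein binding microarrays (Agilent AMADID 015681) probed with GST-tagged S. cerevisiae TFs (full-length or DBD) made by in vitro transcription/translation (PURExpress), about 100-200 nM. Bound TF was detected with fluorescent anti-GST. Each ungapped 8-mer (which stands for itself and its reverse complement) is scored by the PBM enrichment score (E-score), a modified Wilcoxon-Mann-Whitney statistic from -0.5 to +0.5, computed with the Universal PBM Analysis Suite. Scale: above 0.35 generally sequence-specific binding.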

Row | Sequence | PBM E-score
1 | AAGGGGCT | -0.0651
2 | ACCCATTA | 0.0959
3 | GCCAGTTA | 0.0941
4 | ACTCCCCG | -0.0599
5 | AATTGCCG | 0.0202
6 | GGCGGACA | -0.0652
7 | GGTGACCA | -0.15
8 | AGTCGTAT | -0.0149
9 | CTTAAATA | 0.092
10 | CGACCCTA | -0.202
11 | ATGTACGG | 0.0933
12 | CTTGTGGA | -0.00226
13 | CATGGGAA | 0.0137
14 | AGGTAGCA | -0.152
15 | CGAAGCCG | -0.124
16 | ACATGCTA | -0.0453
17 | GGTAATAA | 0.165
18 | AGAGTCAA | -0.2
19 | AGCAATAT | 0.14
20 | CTAATTAC | 0.253
21 | AAGGAGAC | -0.0315
22 | CGCGTTTA | 0.068
23 | GAGTTAGA | -0.125
24 | AATAAAAA | 0.27
25 | CGAAGTCG | 0.189

Row | Sequence | PBM E-score
26 | ACCATAGG | -0.183
27 | GACAGAGA | 0.0536
28 | CGACGTCG | 0.0993
29 | GATTATCA | 0.148
30 | AGTTGGCG | -0.0355
31 | GATGGTAA | 0.0531
32 | GACGTCTA | 0.0148
33 | ACAACCGG | -0.0836
34 | CATTTGCC | -0.129
35 | ATACTGTA | 0.221
36 | TTCTGAAA | 0.145
37 | CACTTCAA | -0.0165
38 | AATGATAC | 0.264
39 | AGGCGCAC | 0.018
40 | CGAGTACC | 0.126
41 | GGAGGTTA | -0.312
42 | AGAAGGGA | -0.259
43 | ACGGCCGC | -0.0128
44 | GGAAGGGA | -0.259
45 | CACCTCCC | -0.262
46 | CGGTCAGC | -0.0915
47 | AAATTAGC | 0.0853
48 | GTATATCA | 0.0881
49 | GCCGAGCA | -0.0911
50 | AAAGAGGA | -0.019

Quoted from above, entries 30–34
Row | Sequence | PBM E-score
30 | AGTTGGCG | -0.0355
31 | GATGGTAA | 0.0531
32 | GACGTCTA | 0.0148
33 | ACAACCGG | -0.0836
34 | CATTTGCC | -0.129

Further results:

Row | Sequence | PBM E-score
51 | AAACAACT | 0.11
52 | GGAGACCA | -0.169
53 | CCCTGCTC | -0.136
54 | CTGCGTGC | -0.121
55 | CCGGACGG | -0.263
56 | CTCTAGGC | -0.0659
57 | CCTGAAAC | 0.0498
58 | CGCCCTTA | -0.152
59 | CACTGATC | 0.038
60 | CTTTACCC | -0.171
61 | CATATTCA | 0.196
62 | AGGGTGAA | -0.0741
63 | CGGCATGA | 0.162
64 | CCTGGAAG | -0.165
65 | ACACCGAG | -0.11
66 | ACGACATC | -0.101
67 | CACTACCC | -0.13
68 | ACTGGCGA | -0.116
69 | AATGGAAG | 0.105
70 | CTGCCGAA | -0.184
71 | AAAGAGAG | -0.0251
72 | ACTAGCGC | 0.0683
73 | CCCGGAAA | 0.0195
74 | CAGGATCG | -0.145
75 | ACTAATCA | 0.255

Row | Sequence | PBM E-score
76 | CAATTTCG | 0.077
77 | AACTGATC | 0.0818
78 | CCGCAACG | -0.0753
79 | ATTATCAA | 0.217
80 | TCATATCA | 0.119
81 | CCATCCAC | -0.14
82 | GTTGGATA | -0.00914
83 | ATAGGGTG | -0.123
84 | GCGCGTAC | 0.0278
85 | CAGCCCGG | -0.216
86 | AGTCATCC | -0.179
87 | CATAAGGA | 0.035
88 | TCAAGAGA | 0.055
89 | ATCGCTCC | -0.171
90 | AGGCTCTA | -0.142
91 | CCCATCGG | -0.221
92 | CTCCGACA | -0.095
93 | ACTCTTGG | -0.107
94 | AAGCCTTG | 0.0576
95 | ACGTAAGT | 0.0805
96 | GACTATGC | -0.0131
97 | CCTATCCA | -0.0644
98 | ACCTTGAA | 0.0329
99 | CCGGAGCC | -0.209
100 | ATACGATA | 0.211

Row | Sequence | PBM E-score
101 | GCCTGGCC | -0.261
102 | ATTTGTCG | 0.154
103 | ACTATGAC | 0.0508
104 | AGGGATGC | -0.123
105 | AAATTACG | 0.172
106 | ACGAACTG | -0.0673
107 | CAAGAGGG | -0.172
108 | AACGTATG | 0.00682
109 | ACCACCCG | -0.199
110 | CGGGAGAA | -0.0083
111 | AGGAGTTA | 0.0833
112 | TACGGGAA | -0.125
113 | GACCACCC | -0.203
114 | TACACGAA | 0.143
115 | ATCCGTTG | 0.0828
116 | AGGGCTAT | -0.131
117 | ACCTAGTC | -0.144
118 | TCACATCA | -0.0112
119 | CCTCATGA | -0.0469
120 | ATGGATGA | 0.0771
121 | ATTAATCA | 0.287
122 | GAACGACC | -0.224
123 | CCTGAAGA | 0.0543
124 | TCATGACA | 0.206
125 | AAAACCGA | 0.00347

Row | Sequence | PBM E-score
126 | AGCAGGGA | -0.0854
127 | CTCCACAG | -0.213
128 | CGCGATGA | 0.197
129 | AATGTCTG | 0.0935
130 | AATCGAGG | 0.109
131 | TCCCGTCA | -0.0924
132 | TAAAACGA | 0.0385
133 | CAAGTGAG | -0.0145
134 | AATAGAGT | -0.0885
135 | CAATGTAA | 0.113
136 | ATGTACCC | 0.0217
137 | ACAACCAG | 0.0808
138 | AAACATCC | 0.0448
139 | CTACACGA | -0.0099
140 | AACATGAG | -0.0586
141 | ATGGCAAA | 0.0267
142 | CACACACA | 0.0351
143 | AGGCACAT | 0.0848
144 | AATGTATC | 0.211
145 | AGAAGAAC | 0.0205
146 | CGCATGAA | 0.111
147 | CCCATCCC | -0.262
148 | CCTGCGAA | -0.112
149 | GCGTCGAA | -0.00921
150 | CAGCAGAA | -0.088

Row | Sequence | PBM E-score
151 | CTAACTAG | 0.0903
152 | TAATCGGA | 0.103
153 | ATCCTCGA | 0.0763
154 | CTCACAAC | 0.191
155 | CGTTAAGA | -0.0915
156 | AGTCACAT | -0.00331
157 | TGTGGTAA | 0.0974
158 | ATGGTCAC | 0.00352
159 | CGCGAGAG | -0.0457
160 | ACGGAAAA | 0.107
161 | AACCGGAC | -0.0376
162 | ATAGAGGA | -0.186
163 | ACCTCTCG | -0.0197
164 | AGGCAGTG | 0.0597
165 | ATGTAGCG | 0.0114
166 | AATGGATC | 0.0638
167 | ACCTCAGA | -0.0947
168 | GAGATAAA | 0.185
169 | AGGCCGCC | -0.145
170 | ACCGGCCA | -0.3
171 | GAGATCCC | -0.0512
172 | TGCTTCAA | 0.07

Copied from the list.
PBM E-score with CTCACAAC reads 0.191
PBM E-score with CGTTAAGA reads -0.0915
PBM E-score with AGGCCGCC reads -0.145
PBM E-score with ATGTAGCG reads 0.0114

Source: the supplement of paper PMC3334620
